Laboratory results taken from the supplement of paper PMC12067093, “Discovery and optimisation of a covalent ligand for TRIM25 and its application to targeted protein ubiquitination” (Chemical Science, 2025).
The list shows a part of the results.

By UniProt entry, the sequences of proteins in these tests, tags left out. Where a name states a change or a piece, a line headed by the entry shows the natural chain unless it says otherwise.
UniProt Q10471: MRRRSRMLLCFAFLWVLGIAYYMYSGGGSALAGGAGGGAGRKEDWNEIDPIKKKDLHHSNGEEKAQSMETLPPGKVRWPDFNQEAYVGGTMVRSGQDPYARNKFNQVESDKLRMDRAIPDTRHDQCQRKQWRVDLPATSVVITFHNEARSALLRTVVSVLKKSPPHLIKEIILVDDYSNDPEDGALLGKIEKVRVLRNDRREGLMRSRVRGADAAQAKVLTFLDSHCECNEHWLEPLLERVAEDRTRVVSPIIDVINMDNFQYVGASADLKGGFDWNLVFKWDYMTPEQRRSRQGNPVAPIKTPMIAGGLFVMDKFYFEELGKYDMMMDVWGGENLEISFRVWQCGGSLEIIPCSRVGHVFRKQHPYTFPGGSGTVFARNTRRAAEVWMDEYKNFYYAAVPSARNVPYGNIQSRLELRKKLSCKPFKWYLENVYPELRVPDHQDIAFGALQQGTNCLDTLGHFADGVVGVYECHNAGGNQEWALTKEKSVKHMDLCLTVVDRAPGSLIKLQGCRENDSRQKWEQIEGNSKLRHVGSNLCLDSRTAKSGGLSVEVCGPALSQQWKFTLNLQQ
UniProt P07902: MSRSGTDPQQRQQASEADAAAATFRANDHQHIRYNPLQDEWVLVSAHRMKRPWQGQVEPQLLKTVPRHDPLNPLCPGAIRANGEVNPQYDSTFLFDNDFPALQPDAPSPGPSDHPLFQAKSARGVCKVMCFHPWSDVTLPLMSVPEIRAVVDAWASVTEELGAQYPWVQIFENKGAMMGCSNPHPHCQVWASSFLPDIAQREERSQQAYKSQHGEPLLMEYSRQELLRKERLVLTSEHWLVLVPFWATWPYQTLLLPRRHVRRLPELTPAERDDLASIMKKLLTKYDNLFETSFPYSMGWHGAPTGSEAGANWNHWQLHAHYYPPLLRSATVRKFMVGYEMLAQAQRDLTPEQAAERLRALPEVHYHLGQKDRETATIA
UniProt Q8WWP7: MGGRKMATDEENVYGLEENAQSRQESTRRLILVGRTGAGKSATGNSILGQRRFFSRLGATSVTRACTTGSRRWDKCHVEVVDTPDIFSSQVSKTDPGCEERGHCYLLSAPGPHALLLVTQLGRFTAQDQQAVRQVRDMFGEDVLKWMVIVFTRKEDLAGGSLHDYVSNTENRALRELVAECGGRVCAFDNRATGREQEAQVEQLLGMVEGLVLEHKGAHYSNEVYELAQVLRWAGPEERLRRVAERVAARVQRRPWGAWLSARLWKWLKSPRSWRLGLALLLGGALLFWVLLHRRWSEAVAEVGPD
UniProt Q96RP9: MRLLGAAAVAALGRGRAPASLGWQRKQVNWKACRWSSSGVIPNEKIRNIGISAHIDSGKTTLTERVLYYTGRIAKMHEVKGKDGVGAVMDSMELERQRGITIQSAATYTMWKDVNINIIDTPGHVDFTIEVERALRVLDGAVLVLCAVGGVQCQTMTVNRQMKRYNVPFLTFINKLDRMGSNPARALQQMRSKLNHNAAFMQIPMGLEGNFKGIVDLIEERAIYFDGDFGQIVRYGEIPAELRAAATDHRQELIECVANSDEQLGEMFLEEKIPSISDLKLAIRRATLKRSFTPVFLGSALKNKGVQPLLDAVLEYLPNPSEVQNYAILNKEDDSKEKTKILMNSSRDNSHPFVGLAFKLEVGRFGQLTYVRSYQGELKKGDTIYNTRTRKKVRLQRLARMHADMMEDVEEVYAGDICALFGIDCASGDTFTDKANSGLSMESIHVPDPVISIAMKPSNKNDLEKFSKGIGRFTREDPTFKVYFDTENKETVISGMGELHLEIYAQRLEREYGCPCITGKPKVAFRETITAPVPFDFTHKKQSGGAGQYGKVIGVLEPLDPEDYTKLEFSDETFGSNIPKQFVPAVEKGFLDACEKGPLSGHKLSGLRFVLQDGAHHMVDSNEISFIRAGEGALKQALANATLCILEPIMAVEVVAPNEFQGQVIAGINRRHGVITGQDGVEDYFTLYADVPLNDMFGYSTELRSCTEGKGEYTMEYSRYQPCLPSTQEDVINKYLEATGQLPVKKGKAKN
UniProt Q92616, whole entry, looked up: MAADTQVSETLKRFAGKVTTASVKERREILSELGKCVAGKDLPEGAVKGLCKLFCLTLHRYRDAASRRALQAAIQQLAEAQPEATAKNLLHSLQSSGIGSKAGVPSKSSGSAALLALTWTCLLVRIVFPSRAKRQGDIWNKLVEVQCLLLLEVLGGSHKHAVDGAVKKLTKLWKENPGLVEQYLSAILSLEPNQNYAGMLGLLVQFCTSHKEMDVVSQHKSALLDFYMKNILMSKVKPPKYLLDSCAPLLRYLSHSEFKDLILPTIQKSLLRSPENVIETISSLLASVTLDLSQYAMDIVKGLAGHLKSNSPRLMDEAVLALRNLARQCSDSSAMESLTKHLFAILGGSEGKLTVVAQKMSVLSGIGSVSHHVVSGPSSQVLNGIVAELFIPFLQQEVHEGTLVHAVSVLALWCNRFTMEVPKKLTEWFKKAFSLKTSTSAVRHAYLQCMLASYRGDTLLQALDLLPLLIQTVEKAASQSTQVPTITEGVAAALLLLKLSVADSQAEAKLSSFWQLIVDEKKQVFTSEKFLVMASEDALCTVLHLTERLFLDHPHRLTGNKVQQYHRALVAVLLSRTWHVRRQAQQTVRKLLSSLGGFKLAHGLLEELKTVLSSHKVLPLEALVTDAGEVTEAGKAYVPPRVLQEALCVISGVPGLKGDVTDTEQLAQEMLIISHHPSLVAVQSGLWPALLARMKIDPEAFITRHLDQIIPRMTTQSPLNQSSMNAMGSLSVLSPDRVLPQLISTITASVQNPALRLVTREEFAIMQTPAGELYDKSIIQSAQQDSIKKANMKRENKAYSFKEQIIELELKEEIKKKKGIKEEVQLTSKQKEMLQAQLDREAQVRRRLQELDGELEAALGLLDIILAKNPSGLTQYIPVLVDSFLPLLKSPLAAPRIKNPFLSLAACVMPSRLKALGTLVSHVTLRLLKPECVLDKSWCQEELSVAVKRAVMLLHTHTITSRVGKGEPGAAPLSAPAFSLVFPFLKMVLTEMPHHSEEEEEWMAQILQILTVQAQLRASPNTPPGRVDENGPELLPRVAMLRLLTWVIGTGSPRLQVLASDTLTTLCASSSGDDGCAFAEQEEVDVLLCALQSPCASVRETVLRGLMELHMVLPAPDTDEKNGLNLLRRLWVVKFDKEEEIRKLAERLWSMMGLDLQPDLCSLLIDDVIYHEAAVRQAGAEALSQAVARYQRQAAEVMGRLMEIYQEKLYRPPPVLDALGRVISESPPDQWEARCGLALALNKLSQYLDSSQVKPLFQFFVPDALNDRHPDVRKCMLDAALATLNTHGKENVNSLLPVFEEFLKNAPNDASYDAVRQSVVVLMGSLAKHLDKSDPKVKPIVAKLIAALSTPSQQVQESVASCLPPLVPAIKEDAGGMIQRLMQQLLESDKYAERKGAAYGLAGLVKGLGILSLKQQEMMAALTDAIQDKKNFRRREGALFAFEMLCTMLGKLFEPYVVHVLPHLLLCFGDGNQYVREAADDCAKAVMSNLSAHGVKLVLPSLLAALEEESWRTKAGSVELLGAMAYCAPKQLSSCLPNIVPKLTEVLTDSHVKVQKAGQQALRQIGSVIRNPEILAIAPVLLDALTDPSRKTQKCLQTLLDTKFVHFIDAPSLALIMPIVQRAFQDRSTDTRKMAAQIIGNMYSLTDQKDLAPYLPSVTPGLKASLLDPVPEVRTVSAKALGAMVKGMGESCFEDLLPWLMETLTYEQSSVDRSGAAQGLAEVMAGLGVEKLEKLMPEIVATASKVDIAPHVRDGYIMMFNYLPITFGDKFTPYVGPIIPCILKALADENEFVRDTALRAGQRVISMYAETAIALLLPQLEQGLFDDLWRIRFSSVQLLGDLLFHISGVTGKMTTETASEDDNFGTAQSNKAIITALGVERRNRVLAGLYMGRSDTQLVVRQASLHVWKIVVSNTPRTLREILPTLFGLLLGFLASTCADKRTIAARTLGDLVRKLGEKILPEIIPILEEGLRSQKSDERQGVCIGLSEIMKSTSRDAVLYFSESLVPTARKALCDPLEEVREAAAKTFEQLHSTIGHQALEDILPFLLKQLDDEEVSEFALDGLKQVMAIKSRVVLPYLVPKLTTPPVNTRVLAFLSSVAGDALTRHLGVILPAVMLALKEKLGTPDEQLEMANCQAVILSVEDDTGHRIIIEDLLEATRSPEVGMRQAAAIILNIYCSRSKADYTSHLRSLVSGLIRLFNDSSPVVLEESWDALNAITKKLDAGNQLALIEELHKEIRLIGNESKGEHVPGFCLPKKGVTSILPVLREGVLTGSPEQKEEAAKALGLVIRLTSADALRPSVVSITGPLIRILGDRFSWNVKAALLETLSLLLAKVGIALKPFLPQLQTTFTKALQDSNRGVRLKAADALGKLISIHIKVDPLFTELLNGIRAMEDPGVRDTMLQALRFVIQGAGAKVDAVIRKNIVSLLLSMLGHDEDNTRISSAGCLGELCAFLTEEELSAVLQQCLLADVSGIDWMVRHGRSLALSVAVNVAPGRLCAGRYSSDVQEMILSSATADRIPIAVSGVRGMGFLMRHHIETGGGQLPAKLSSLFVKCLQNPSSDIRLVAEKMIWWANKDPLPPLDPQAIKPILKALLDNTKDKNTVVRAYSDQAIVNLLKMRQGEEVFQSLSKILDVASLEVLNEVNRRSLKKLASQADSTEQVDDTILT
UniProt P22102: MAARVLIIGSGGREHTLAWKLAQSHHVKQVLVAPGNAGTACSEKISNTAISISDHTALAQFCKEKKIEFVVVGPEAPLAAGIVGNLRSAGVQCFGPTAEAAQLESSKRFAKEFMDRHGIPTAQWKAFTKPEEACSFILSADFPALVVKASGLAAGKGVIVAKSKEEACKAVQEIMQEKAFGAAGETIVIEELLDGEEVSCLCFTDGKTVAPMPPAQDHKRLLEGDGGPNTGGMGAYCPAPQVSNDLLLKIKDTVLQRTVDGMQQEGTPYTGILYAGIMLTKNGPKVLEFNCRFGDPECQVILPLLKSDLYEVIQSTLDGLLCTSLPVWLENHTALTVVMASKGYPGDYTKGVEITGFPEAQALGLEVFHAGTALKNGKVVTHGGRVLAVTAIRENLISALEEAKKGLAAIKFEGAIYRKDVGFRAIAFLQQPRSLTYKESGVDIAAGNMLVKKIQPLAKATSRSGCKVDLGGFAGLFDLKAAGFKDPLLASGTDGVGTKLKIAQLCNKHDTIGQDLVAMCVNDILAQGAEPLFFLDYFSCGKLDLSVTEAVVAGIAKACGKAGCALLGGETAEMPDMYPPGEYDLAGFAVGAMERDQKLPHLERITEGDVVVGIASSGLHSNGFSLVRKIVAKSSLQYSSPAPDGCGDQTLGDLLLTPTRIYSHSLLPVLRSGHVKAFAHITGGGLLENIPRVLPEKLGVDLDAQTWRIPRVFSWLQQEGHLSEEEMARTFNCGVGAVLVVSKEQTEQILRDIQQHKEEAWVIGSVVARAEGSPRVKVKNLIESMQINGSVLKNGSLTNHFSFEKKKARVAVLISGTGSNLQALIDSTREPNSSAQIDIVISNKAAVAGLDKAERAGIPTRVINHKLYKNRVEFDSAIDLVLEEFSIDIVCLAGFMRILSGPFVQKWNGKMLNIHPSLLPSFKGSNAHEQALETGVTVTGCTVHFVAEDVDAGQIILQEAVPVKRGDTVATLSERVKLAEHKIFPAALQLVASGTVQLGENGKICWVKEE
UniProt P48506: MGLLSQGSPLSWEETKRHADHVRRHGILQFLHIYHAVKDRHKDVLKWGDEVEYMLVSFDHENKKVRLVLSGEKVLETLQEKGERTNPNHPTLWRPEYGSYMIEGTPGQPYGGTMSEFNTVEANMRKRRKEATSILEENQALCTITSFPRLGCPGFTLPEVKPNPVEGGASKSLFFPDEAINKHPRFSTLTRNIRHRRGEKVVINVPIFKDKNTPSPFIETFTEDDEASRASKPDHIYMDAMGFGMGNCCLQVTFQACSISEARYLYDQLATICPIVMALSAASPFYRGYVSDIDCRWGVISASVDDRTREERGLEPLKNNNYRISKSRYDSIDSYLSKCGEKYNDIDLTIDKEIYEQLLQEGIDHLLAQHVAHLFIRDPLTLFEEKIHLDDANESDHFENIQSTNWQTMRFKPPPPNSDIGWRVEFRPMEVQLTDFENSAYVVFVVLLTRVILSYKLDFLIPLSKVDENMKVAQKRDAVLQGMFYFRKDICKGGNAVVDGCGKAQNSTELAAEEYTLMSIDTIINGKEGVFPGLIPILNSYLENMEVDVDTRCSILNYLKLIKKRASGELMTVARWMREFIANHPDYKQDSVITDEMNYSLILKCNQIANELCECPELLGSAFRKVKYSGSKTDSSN
UniProt Q9NWZ8: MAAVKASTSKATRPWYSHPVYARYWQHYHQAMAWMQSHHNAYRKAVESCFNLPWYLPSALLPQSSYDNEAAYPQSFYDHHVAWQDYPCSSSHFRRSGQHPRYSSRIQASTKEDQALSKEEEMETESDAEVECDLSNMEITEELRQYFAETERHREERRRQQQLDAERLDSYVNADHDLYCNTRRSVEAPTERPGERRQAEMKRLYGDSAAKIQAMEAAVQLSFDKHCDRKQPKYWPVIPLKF

compound: Cc1cc(ccc1-c1ccccc1)C(=O)N1CCCN(CC1)C(=O)CCl [compound 10]; assay: probe-labelled cysteine peptide fold change vs DMSO (competition) (log2 fold change); higher = less target engagement (more negative = stronger competition); settings: 10 µM; THP-1; incubation time: 4 h
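Further: competitive profiling in live THP-1 cells: cysteine peptides tagged with an iodoacetamide desthiobiotin (IA-DTB) probe, intensity after compound treatment relative to DMSO-treated cells.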

| Target | probe-labelled cysteine peptide fold change |
| --- | --- |
| GHDC_Q8N2G8_502_AALAACPSSPFPPAMPR (UniProt Q8N2G8) | -0.421 |
| GATD1_Q8NB37_94_YHALLIPSCPGALTDLASSGSLAR (UniProt Q8NB37) | 0.0159 |
| GATAD2A_Q86YP4_6_TEEACR (UniProt Q86YP4) | -0.14 |
| GALNT7_Q86SF2_562_TNGGFVELGPCHR (UniProt Q86SF2) | 0.0465 |
| GALNT7_Q86SF2_545_GFETAYCIDSMGK (UniProt Q86SF2) | -0.0613 |
| GALNT2_Q10471_227+229_VLTFLDSHCECNEHWLEPLLER (UniProt Q10471) | -0.298 |
| GEMIN4_P57678_210_SDPDACPTMPLLAMLLR (UniProt P57678) | -0.127 |
| GIPC3_Q8TF64_168_EGSIINRIEAVCVGDSIEAINDHSIVGCR (UniProt Q8TF64) | 0.00365 |
| GAPDH_P04406_152_IISNASCTTNCLAPLAK (UniProt P04406) | 0.0586 |
| GCC2_Q8IWJ2_889_TRLENQNLLIQVEEVSQTCSK (UniProt Q8IWJ2) | -0.265 |
| GFI1_Q99684_398_KHTGFKPFGCDLCGK (UniProt Q99684) | 0.0893 |
| GCC2_Q8IWJ2_1061_NSTLQCETINSDNEDLLAR (UniProt Q8IWJ2) | -0.0199 |
| GGA3_Q9NZ52_255_ELFDQCENK (UniProt Q9NZ52) | -0.0153 |
| GDI1_P31150_282_QLICDPSYIPDR (UniProt P31150) | 0.0641 |
| GINS4_Q9BRT9_53_FAPELLESKPEIVECVMEQLEHMEENLRR (UniProt Q9BRT9) | 0.0768 |
| GALT_P07902_75_HDPLNPLCPGAIR (UniProt P07902) | -0.0759 |
| GIMAP1_Q8WWP7_181_ELVAECGGR (UniProt Q8WWP7) | -0.196 |
| GFM1_Q96RP9_706_SCTEGK (UniProt Q96RP9) | -0.0868 |
| GEN1_Q17RS7_634_SEVESELSAIPDGFENIPEQLSCESER (UniProt Q17RS7) | -0.435 |
| GIGYF2_Q6Y7W6_573_RACDESFQPLGDIMK (UniProt Q6Y7W6) | 0.146 |

| Target | probe-labelled cysteine peptide fold change |
| --- | --- |
| GALNT12_Q8IXK2_231+233_GDVLTFLDCHCECHEGWLEPLLQR (UniProt Q8IXK2) | -0.113 |
| GCN1_Q92616_2136_LGTPDEQLEMANCQAVILSVEDDTGHR (UniProt Q92616) | -0.0458 |
| GCC2_Q8IWJ2_257_ELMCQIEASAK (UniProt Q8IWJ2) | -0.164 |
| GAPDH_P04406_152+156_IISNASCTTNCLAPLAK (UniProt P04406) | 0.128 |
| GIT2_Q14161_122_LPCRDDDSVTAK (UniProt Q14161) | -0.101 |
| GARS_P41250_231_KCSVEK (UniProt P41250) | 0.133 |
| GART_P22102_134_AFTKPEEACSFILSADFPALVVK (UniProt P22102) | 0.298 |
| GIT2_Q14161_34+35_GTFLCDECCSVHR (UniProt Q14161) | -0.0885 |
| GDI1_P31150_335_KSDIYVCMISYAHNVAAQGK (UniProt P31150) | 0.246 |
| GCLC_P48506_152_LGCPGFTLPEVKPNPVEGGASK (UniProt P48506) | 0.0625 |
| GANAB_Q14697_423_DEADVLEVDQGFDDHNLPCDVIWLDIEHADGK (UniProt Q14697) | 0.0435 |
| GATM_P50440_131_KAVAEIEEMCNILK (UniProt P50440) | -0.0751 |
| GARS_P41250_442_QHMENEMAHYACDCWDAESK (UniProt P41250) | 0.132 |
| GFM1_Q96RP9_256_AAATDHRQELIECVANSDEQLGEMFLEEK (UniProt Q96RP9) | -0.183 |
| GATM_P50440_131_AVAEIEEMCNILK (UniProt P50440) | 0.1 |
| GALNT1_Q10472_214_GQVITFLDAHCECTVGWLEPLLAR (UniProt Q10472) | 0.104 |
| GARS_P41250_461_TSYGWIEIVGCADR (UniProt P41250) | 0.205 |
| GART_P22102_62_ISNTAISISDHTALAQFCK (UniProt P22102) | 0.426 |
| GFM1_Q96RP9_706_SCTEGKGEYTMEYSR (UniProt Q96RP9) | -0.27 |
| GEMIN8_Q9NWZ8_180_QQQLDAERLDSYVNADHDLYCNTR (UniProt Q9NWZ8) | 0.0135 |

same assay, conditions: 50 µM; THP-1; incubation time: 4 h

| Target | probe-labelled cysteine peptide fold change |
| --- | --- |
| GHDC_Q8N2G8_502_AALAACPSSPFPPAMPR (UniProt Q8N2G8) | -0.795 |
| GATD1_Q8NB37_94_YHALLIPSCPGALTDLASSGSLAR (UniProt Q8NB37) | -0.00276 |
| GATAD2A_Q86YP4_6_TEEACR (UniProt Q86YP4) | -0.13 |
| GALNT7_Q86SF2_562_TNGGFVELGPCHR (UniProt Q86SF2) | 0.0262 |
| GALNT7_Q86SF2_545_GFETAYCIDSMGK (UniProt Q86SF2) | 0.095 |
| GALNT2_Q10471_227+229_VLTFLDSHCECNEHWLEPLLER (UniProt Q10471) | -0.368 |
| GEMIN4_P57678_210_SDPDACPTMPLLAMLLR (UniProt P57678) | -0.674 |
| GIPC3_Q8TF64_168_EGSIINRIEAVCVGDSIEAINDHSIVGCR (UniProt Q8TF64) | -0.113 |
| GAPDH_P04406_152_IISNASCTTNCLAPLAK (UniProt P04406) | -0.65 |
| GCC2_Q8IWJ2_889_TRLENQNLLIQVEEVSQTCSK (UniProt Q8IWJ2) | -0.106 |
| GFI1_Q99684_398_KHTGFKPFGCDLCGK (UniProt Q99684) | 0.374 |
| GCC2_Q8IWJ2_1061_NSTLQCETINSDNEDLLAR (UniProt Q8IWJ2) | -0.302 |
| GGA3_Q9NZ52_255_ELFDQCENK (UniProt Q9NZ52) | -0.0928 |
| GDI1_P31150_282_QLICDPSYIPDR (UniProt P31150) | -0.205 |
| GINS4_Q9BRT9_53_FAPELLESKPEIVECVMEQLEHMEENLRR (UniProt Q9BRT9) | -0.0213 |
| GALT_P07902_75_HDPLNPLCPGAIR (UniProt P07902) | 0.0445 |
| GIMAP1_Q8WWP7_181_ELVAECGGR (UniProt Q8WWP7) | -0.0158 |
| GFM1_Q96RP9_706_SCTEGK (UniProt Q96RP9) | 0.111 |
| GEN1_Q17RS7_634_SEVESELSAIPDGFENIPEQLSCESER (UniProt Q17RS7) | -0.524 |
| GIGYF2_Q6Y7W6_573_RACDESFQPLGDIMK (UniProt Q6Y7W6) | -0.0921 |

| Target | probe-labelled cysteine peptide fold change |
| --- | --- |
| GALNT12_Q8IXK2_231+233_GDVLTFLDCHCECHEGWLEPLLQR (UniProt Q8IXK2) | -0.133 |
| GCN1_Q92616_2136_LGTPDEQLEMANCQAVILSVEDDTGHR (UniProt Q92616) | 0.286 |
| GCC2_Q8IWJ2_257_ELMCQIEASAK (UniProt Q8IWJ2) | -0.256 |
| GAPDH_P04406_152+156_IISNASCTTNCLAPLAK (UniProt P04406) | -0.879 |
| GIT2_Q14161_122_LPCRDDDSVTAK (UniProt Q14161) | -0.401 |
| GARS_P41250_231_KCSVEK (UniProt P41250) | -0.461 |
| GART_P22102_134_AFTKPEEACSFILSADFPALVVK (UniProt P22102) | 0.0386 |
| GIT2_Q14161_34+35_GTFLCDECCSVHR (UniProt Q14161) | 0.0411 |
| GDI1_P31150_335_KSDIYVCMISYAHNVAAQGK (UniProt P31150) | 0.0153 |
| GCLC_P48506_152_LGCPGFTLPEVKPNPVEGGASK (UniProt P48506) | -0.0144 |
| GANAB_Q14697_423_DEADVLEVDQGFDDHNLPCDVIWLDIEHADGK (UniProt Q14697) | 0.597 |
| GATM_P50440_131_KAVAEIEEMCNILK (UniProt P50440) | -0.22 |
| GARS_P41250_442_QHMENEMAHYACDCWDAESK (UniProt P41250) | 0.0951 |
| GFM1_Q96RP9_256_AAATDHRQELIECVANSDEQLGEMFLEEK (UniProt Q96RP9) | -0.436 |
| GATM_P50440_131_AVAEIEEMCNILK (UniProt P50440) | 0.368 |
| GALNT1_Q10472_214_GQVITFLDAHCECTVGWLEPLLAR (UniProt Q10472) | 0.157 |
| GARS_P41250_461_TSYGWIEIVGCADR (UniProt P41250) | -0.00336 |
| GART_P22102_62_ISNTAISISDHTALAQFCK (UniProt P22102) | 0.11 |
| GFM1_Q96RP9_706_SCTEGKGEYTMEYSR (UniProt Q96RP9) | -0.524 |
| GEMIN8_Q9NWZ8_180_QQQLDAERLDSYVNADHDLYCNTR (UniProt Q9NWZ8) | -0.0851 |
